Results are given in words; binding and its absence hold for the method and conditions named. For some assays here: Binding can be weak; no strength is given. For some assays here: Where a sequence is shown, tags or fusion partners need not be part of it. For some assays here: Binding seen in cells or lysates may run through a third protein.
Legend:
[1] = molecular target: GST/His-fused PRMT5 purified from E. coli (UniProt O14744); assay: pull-down; GST pull-down: GST-fused proteins mixed with 6*His-fused proteins, all purified from E. coli; glutathione beads 4 h, five washes, Western blot; both purified
[2] = molecular target: GST/His-fused TWIST1 purified from E. coli (UniProt Q15672); assay: as above
[3] = molecular target: T1, GST/His-fused ZEB2 purified from E. coli (UniProt A0JP08); assay: as above
T1 sequence: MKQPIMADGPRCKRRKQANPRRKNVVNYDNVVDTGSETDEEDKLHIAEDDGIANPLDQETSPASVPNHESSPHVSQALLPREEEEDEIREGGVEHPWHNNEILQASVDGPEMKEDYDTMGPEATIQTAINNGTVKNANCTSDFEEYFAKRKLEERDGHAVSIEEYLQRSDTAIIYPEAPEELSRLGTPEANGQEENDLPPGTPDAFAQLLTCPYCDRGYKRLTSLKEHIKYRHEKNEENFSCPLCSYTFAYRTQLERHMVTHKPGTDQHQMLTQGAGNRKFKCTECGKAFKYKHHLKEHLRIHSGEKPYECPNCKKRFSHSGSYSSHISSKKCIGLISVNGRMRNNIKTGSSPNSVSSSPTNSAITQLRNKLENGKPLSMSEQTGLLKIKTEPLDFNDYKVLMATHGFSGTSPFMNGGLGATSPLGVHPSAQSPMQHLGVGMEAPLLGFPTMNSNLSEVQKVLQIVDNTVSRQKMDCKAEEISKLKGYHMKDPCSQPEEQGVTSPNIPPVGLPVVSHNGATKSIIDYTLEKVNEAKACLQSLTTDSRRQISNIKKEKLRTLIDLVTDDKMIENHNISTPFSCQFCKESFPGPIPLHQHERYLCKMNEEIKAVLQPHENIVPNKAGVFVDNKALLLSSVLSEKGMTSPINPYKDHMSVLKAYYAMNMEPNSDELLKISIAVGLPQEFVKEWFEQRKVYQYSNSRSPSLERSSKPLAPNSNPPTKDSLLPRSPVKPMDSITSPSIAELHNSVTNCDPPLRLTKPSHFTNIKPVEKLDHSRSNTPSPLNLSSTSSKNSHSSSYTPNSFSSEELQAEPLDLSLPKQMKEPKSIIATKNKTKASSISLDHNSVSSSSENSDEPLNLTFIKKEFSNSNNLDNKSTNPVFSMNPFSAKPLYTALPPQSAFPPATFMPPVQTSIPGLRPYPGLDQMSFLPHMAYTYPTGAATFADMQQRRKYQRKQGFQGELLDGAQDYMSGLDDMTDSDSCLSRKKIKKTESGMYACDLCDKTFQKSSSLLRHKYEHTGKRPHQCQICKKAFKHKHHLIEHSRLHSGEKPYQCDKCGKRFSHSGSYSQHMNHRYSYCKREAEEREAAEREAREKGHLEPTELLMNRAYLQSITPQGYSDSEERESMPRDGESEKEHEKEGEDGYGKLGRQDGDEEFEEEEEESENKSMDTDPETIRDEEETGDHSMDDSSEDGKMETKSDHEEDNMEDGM

Sequences of proteins named here, by UniProt entry; tags and fusion partners are left off. A change or cut given only in a name is not applied to a line headed by its entry.
UniProt O14744: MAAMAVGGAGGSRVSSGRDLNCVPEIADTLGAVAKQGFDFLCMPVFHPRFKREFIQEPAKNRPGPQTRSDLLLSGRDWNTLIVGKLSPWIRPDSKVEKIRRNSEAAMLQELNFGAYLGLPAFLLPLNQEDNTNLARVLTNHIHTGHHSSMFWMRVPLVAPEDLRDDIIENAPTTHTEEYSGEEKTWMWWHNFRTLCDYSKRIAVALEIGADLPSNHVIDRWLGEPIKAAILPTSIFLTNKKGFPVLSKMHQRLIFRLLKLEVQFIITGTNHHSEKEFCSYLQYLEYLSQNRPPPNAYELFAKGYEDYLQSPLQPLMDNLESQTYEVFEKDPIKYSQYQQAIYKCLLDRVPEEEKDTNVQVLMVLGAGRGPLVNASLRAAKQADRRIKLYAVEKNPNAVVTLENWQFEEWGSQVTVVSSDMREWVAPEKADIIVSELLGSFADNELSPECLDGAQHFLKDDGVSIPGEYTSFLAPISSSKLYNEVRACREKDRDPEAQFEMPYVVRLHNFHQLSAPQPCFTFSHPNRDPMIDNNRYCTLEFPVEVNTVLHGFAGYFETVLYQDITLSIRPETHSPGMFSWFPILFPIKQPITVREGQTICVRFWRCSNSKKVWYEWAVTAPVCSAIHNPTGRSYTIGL
UniProt Q15672: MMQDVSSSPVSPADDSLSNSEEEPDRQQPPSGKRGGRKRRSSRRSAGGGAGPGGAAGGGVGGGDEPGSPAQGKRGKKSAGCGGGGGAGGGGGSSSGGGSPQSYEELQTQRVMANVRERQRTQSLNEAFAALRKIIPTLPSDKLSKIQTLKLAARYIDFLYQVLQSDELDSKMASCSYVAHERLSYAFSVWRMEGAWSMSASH
UniProt Q92769: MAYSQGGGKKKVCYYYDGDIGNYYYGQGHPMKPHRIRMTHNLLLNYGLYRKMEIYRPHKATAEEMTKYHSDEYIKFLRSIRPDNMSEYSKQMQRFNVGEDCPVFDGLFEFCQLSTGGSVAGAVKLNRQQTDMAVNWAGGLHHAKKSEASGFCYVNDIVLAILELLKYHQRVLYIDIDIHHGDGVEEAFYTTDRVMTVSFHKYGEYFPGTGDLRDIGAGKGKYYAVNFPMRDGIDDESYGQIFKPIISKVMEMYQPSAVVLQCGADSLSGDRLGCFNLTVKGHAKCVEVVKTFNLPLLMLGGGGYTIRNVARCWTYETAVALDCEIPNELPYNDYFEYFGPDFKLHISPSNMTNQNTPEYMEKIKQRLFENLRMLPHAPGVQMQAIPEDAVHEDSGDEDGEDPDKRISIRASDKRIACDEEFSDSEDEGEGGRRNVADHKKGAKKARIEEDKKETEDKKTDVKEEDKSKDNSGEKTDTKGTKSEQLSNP

[4] = molecular target: T2, ZEB2 immunoprecipitated from HT29, HCT116 and SW620 cells (UniProt A0JP08); assay: co-IP; immunoprecipitation of ZEB2 from HT29, HCT116 and SW620 cells, Western blot (Supplementary Figure S7)
T2 sequence: T1 sequence

[5] = molecular target: T3, HA-tagged ZEB2 (Zinc finger E-box-binding homeobox 2) (UniProt A0JP08); assay: co-IP; whole-cell lysates of SW480 cells overexpressing ZEB2 (without or with overexpressed TWIST1) immunoprecipitated for ZEB2, Western blot of the precipitates; IgG as negative control
T3 sequence: T1 sequence

GST/His-fused HDAC2 purified from E. coli (from UniProt Q92769 1-488) (enzyme)
binding [1]: no binding

GST/His-fused PRMT5 purified from E. coli (from UniProt O14744) (enzyme)
binding [2]: no binding | binding [3]: binds

Protein arginine N-methyltransferase 5 (PRMT5), endogenous (from UniProt O14744) (enzyme)
binding [4]: binds | binding [5]: binds

— publication PMC9324012
